Read-outs that look alike come from different tables or passages of the source. Results are given in words; binding and its absence hold for the method and conditions named. In cells and extracts the contact can be indirect. A yes stands for co-enrichment or nearness to the bait. Other partners may have been found.
T1: 3xHA-TurboID-RNF12 (mouse) (UniProt Q9WTV7)
T1 sequence: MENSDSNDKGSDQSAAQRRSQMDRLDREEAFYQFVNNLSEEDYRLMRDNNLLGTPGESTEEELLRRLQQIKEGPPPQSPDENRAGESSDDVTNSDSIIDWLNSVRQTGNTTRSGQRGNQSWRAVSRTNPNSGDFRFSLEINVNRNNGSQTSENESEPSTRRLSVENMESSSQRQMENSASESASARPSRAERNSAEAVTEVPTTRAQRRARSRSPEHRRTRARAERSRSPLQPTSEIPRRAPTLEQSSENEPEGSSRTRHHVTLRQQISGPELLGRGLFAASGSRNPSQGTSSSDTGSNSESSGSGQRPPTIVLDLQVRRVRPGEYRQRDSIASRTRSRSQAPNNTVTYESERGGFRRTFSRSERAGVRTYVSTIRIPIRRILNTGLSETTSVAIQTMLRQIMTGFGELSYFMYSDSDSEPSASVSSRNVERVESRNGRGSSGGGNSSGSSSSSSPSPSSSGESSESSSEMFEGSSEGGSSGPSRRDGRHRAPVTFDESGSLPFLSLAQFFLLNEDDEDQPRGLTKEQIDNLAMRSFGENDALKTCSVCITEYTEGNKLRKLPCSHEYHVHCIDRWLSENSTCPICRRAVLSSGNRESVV

Amino acid sequences for entries named in this document (tags omitted).
UniProt P17918: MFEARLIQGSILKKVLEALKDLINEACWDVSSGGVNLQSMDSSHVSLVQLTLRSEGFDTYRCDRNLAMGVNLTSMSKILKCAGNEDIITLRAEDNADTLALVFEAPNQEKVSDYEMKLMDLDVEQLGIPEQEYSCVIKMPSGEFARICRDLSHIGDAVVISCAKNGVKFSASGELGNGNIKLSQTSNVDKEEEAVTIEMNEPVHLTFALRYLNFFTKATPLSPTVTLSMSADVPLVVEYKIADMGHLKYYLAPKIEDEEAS
UniProt P22227: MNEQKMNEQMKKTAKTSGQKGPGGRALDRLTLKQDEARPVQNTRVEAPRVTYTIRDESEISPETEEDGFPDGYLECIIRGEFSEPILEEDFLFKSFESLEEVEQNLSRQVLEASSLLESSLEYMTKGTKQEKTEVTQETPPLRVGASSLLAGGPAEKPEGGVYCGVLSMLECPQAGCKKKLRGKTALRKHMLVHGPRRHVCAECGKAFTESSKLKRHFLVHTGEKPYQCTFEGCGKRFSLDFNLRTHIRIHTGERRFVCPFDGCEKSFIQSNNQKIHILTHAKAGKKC


Tests used:
[1] = target: T1, 3xHA-TurboID-RNF12 (mouse); experiment: proximity labelling; 3xHA-TurboID-RNF12 against 3xHA-TurboID control in Rlim+/y mESCs, triplicate; doxycycline 18 h, then 10 uM MG132 with 50 uM biotin 4 h; lysis in 8 M urea, 50 mM Tris pH 7.4; streptavidin pull-down and mass spectrometry; hits labelled >twofold over control
[2] = target: T1, 3xHA-TurboID-RNF12 (mouse); experiment: as above; remark: listed apart in the source

Row | binding [1] | binding [2] | Molecule
1 | binds |  | PCNA, endogenous in mESCs (from UniProt P17918 1-261)
2 | binds |  | REX1 (ZFP42), endogenous in mESCs (from UniProt P22227 1-288)
3 |  | binds | WRNIP1, endogenous in mESCs (protein, UniProt Q91XU0 1-660) MEVSGPEDDPFLSQLHQVQCPVCQQMMPAAHINSHLDRCLLLHPAGHAEPAAGSHRAGERAKGPSPPGAKRRRLSESSALKQPATPTAAESSEGEGEEGDDGGETESRESYDAPPTPSGARLIPDFPVARSSSPARKGMGKRPAAAAAAGSASPRSWDEAEAQEEEEAGVDGDGDADVDGEDDPGHWDADAADASFGVSAGRAHPRALAAEEIRQMLEGKPLADKMRPDTLQDYIGQSRAVGQETLLRSLLEANEIPSLILWGPPGCGKTTLAHIIANNSKKHSIRFVTLSATNAKTNDVRDVIKQAQNEKSFFKRKTILFIDEIHRFNKSQQDTFLPHVECGTITLIGATTENPSFQVNAALLSRCRVIVLEKLPVEAMVTILMRAINSLGIHVLDSSRPTDPLSHSSNCSSEPSVFIEDKAVDTLAYLSDGDARTGLNGLQLAVLARLSSRKVFCKKSGQTYSPSRVLITENDVKEGLQRSHILYDRAGEEHYNCISALHKAMRGSDQNASLYWLARMLEGGEDPLYVARRLVRFASEDIGLADPSALAQAVAAYQGCHFIGMPECEVLLAQCVVYFARAPKSIEVYSAYNNVKACLRSHQGPLPPVPLHLRNAPTRLMKDLGYGKGYKYNPMYSEPVDQDYLPEELRGVDFFKQRRC

Reference: PMC10781586
